Assay results published in PubChem BioAssay AID540256 (National Center for Advancing Translational Sciences (NCATS), 2011).
About 3,700 (1.2%) of roughly 300,000 compounds were called active. The inconclusive results got no clear call from the source; some entries with a clear call stand among them for comparison. Calls follow the shape of the full dose curve; tested in HEK293 cells. Potencies beside an inconclusive call are fits to weak or partial responses and may not hold up.

experiment: qHTS for Inhibitors of binding or entry into cells for Lassa Virus; details: Lassa virus pseudotype entry inhibition, cell reporter; series mostly up to 37.9 µM; also: nearly all actives have a fitted effect of over 50% in size
Potency is read from the fitted curve at half-maximal effect.

| SMILES | Potency |
| --- | --- |
| Fc1ccc(N=C2NN=C(c3cc(F)ccc3F)CS2)cc1 | inconclusive: 20 µM [inhibitor, single point] |
| COc1cccc(Cn2c(SCc3ccc(C(=O)N4CCCCC4)cc3)nc3ccncc32)c1 | inconclusive: 7.08 µM [inhibitor, full curve, poor fit] |
| O=C(Nc1nc2cc3c(cc2s1)OCCO3)c1ccc([N+](=O)[O-])o1 | inconclusive: 3.16 µM [inhibitor, full curve, poor fit] |
| COc1cc([N+](=O)[O-])ccc1NC(=O)Nc1nc2c(s1)CCCC2 | inactive |
| CN1c2ccccc2C(C)(C)C12C=Cc1cc(O)ccc1O2 (stereo not given) | active: 14.6 µM |
| Cc1cc(NC(=O)CSc2nc3c(sc4ccccc43)c(=O)n2CCc2ccccc2)n[nH]1 | inactive |
| Cc1ccc(-c2noc(-c3cc4ccccc4oc3=O)n2)cc1 | inactive |
| COc1ccccc1C1=NOC(CN2C(=O)c3ccccc3S2(=O)=O)C1 (stereo not given) | inconclusive: 31.6 µM [inhibitor, single point] |
| O=C(COc1ccc(F)cc1)Nc1nnc(SCc2cc(=O)n3ccccc3n2)s1 | inactive |
| COc1cccc(OCc2nnc(SCc3cc(=O)[nH]c4ccccc34)o2)c1 | inconclusive: 35.5 µM [inhibitor, single point] |
| Cc1nc(N2CCC(C)CC2)c2c(C)c(C(=O)Nc3cccc(C(F)(F)F)c3)sc2n1 | inactive |
| CCOc1ccc(NC(=O)CSc2nncc(=O)n2N)cc1 | inactive |
| COc1cccc(Nc2nc(-c3cccc(N4C(=O)c5ccccc5C4=O)c3)cs2)c1 | inconclusive: 16.4 µM [inhibitor, single point] |
| COc1ccc(CCNC(=O)Cc2ccc(OCc3ccccc3)c(OC)c2[N+](=O)[O-])cc1OCc1ccccc1 | inconclusive: 12.6 µM [inhibitor, partial curve, poor fit] |
| O=C(O)c1ccc(-c2ccc(/C=C3\NC(=O)N(Cc4ccc(Cl)cc4)C3=O)o2)cc1Cl | inconclusive: 3.55 µM [inhibitor, single point] |
| CN(CCCC(=O)Nc1ccncc1)S(=O)(=O)c1ccc(Cl)cc1 | inconclusive: 7.3 µM [inhibitor, partial curve] |
| COc1ccc2c(c1)c(=O)c(S(=O)(=O)c1ccc(Cl)cc1)cn2Cc1cc(C)ccc1C | inactive |
| CCOc1ccc(S(=O)(=O)Nc2nc3ccccc3nc2N2CCN(C)CC2)cc1 | inactive |
| CCC(=O)Nc1ccc(NC(=O)c2ccc3ccccc3c2)cc1 | inactive |
| COc1ccc(S(=O)(=O)Nc2ccccc2OC)cc1N=Nc1c(O)[nH]c(=S)[nH]c1=O | inconclusive: 20 µM [inhibitor, partial curve, poor fit] |

Two of these compounds in another layout:
SMILES	Potency
CCOc1ccc(NC(=O)CSc2nncc(=O)n2N)cc1	inactive
CCC(=O)Nc1ccc(NC(=O)c2ccc3ccccc3c2)cc1	inactive
